Taken from: PubChem BioAssay AID1259424 (University of Nebraska Medical Center, 2018)

Assay: 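Seek colon cancer survival genes behaving like KSR1, using a six-gene signature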 (primary screen)
Cells: human HCT116 colon cancer cells
Knock-down reagent: siRNA pool against human genes, 50 nM
Measured: 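Log2 levels of six mRNAs (branched-DNA multiplex), adjusted by two reference genes and the non-targeting median, then scored against the average KSR1 knockdown pattern as Pearson r and euclidean distance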
Reading the numbers: mean correlation with KSR1 profile: higher = expression change more like KSR1 knockdown
Shown is a random part of about 14,000 deposited reagents. 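Higher correlation or smaller distance means closer resemblance to KSR1 loss; control wells, including KSR1 knockdowns, recur on many plates.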 Further read-outs or replicates are left out here. The record does not give: the time to read-out.

| Gene | mean correlation with KSR1 profile |
| --- | --- |
| ANKHD1 | 0.454 |
| WDR1 | 0.166 |
| ALKBH4 | -0.58 |
| MOB3B | -0.188 |
| NFKB1 | 0.186 |
| PPM1L | -0.757 |
| SUSD6 | -0.71 |
| CTNNAL1 | -0.427 |
| PNP | 0.692 |
| ZP2 | -0.298 |
| LAMTOR5 | -0.208 |
| PRKRIP1 | 0.412 |
| OR12D2 | 0.306 |
| RHBDL2 | -0.142 |
| ATP6V0D1 | 0.0225 |
| TNFRSF12A | -0.0419 |
| ACSS2 | 0.136 |
| SPATA31C2 | -0.711 |
| CYB5R4 | -0.306 |
| TARS1 | -0.00611 |
| SIX4 | -0.453 |
| MAGEL2 | 0.0966 |
| RAI1 | 0.21 |
| SCG3 | -0.0493 |
| GABRA1 | -0.336 |
| NDUFA1 | -0.191 |
| SNX7 | -0.167 |
| PLXDC1 | -0.0354 |
| CARS1 | 0.307 |
| LILRB2 | 0.561 |
| SOX5 | 0.0819 |
| CLIC6 | 0.158 |
| EEF1A1 | 0.213 |
| NES | -0.42 |
| HGH1 | 0.15 |
| PROSER1 | -0.183 |
| SRL | -0.426 |
| SLC6A13 | 0.204 |
| CSNK2A1 | -0.202 |
| FBXO2 | -0.131 |
| KCTD9 | -0.237 |
| EHMT2 | -0.297 |
| AOC1 | -0.235 |
| SLC5A2 | 0.453 |
| SNX3 | 0.246 |
| FAM110D | 0.235 |
| NUDT9 | 0.338 |
| KYAT3 | -0.598 |
| RASGRP2 | -0.127 |
| TBL3 | -0.19 |
| RELT | -0.617 |
| RGL4 | -0.743 |
| FN3KRP | 0.643 |
| EMSY | -0.644 |
| JAM2 | -0.104 |
| SULT1C2 | -0.193 |
| MATN2 | -0.186 |
| FLG | -0.262 |
| ITGAX | 0.333 |
| NFATC2 | 0.656 |
| WDR5 | -0.123 |
| COX4I1 | 0.334 |
| RSL1D1 | -0.341 |

Part of the list above, reformatted:
RASGRP2
- mean correlation with KSR1 profile: -0.127

TBL3
- mean correlation with KSR1 profile: -0.19

RELT
- mean correlation with KSR1 profile: -0.617

RGL4
- mean correlation with KSR1 profile: -0.743

FN3KRP
- mean correlation with KSR1 profile: 0.643

EMSY
- mean correlation with KSR1 profile: -0.644

JAM2
- mean correlation with KSR1 profile: -0.104

SULT1C2
- mean correlation with KSR1 profile: -0.193
